Results reported in article PMC6819594, “Screening antiproliferative drug for breast cancer from bisbenzylisoquinoline alkaloid tetrandrine and fangchinoline derivatives by targeting BLM helicase” (BMC Cancer, 2019).
The exact form of at least one protein or probe is not confirmed. The comparison behind a weaker result is the experiment's own reference, which may not be listed here. At least one verdict rests on a figure or table, not on a statement of the authors.

By UniProt entry, the sequences of proteins in these tests, tags left out. Residues count along the entry.
UniProt P54132, 642-1290: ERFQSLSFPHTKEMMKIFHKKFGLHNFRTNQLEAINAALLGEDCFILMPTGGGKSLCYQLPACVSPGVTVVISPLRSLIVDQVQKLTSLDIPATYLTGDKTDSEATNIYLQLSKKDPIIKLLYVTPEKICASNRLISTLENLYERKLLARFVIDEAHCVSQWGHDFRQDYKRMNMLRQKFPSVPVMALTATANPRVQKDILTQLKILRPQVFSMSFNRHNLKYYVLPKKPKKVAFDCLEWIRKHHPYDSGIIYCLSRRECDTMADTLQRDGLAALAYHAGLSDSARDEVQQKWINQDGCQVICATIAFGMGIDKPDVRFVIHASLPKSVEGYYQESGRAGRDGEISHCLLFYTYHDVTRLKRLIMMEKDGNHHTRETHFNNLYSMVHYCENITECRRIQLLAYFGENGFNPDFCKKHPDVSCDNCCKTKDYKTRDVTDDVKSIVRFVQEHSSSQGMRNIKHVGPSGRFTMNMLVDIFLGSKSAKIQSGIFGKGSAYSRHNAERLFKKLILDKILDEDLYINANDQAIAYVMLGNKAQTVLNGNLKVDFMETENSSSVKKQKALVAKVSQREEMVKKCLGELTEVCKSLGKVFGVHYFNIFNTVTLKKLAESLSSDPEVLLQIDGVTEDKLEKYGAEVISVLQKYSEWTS

Assays:
BLM642-1290 helicase [1] = target: BLM642-1290 helicase (UniProt P54132); assay: fluorescence anisotropy; conditions: 20 mM Tris pH 7.9, 25 mM NaCl, 3 mM MgCl2, 0.1 mM DTT, FP temperature not stated, recombinant protein, residues 642-1290
BLM642-1290 helicase [2] = target: BLM642-1290 helicase (UniProt P54132); assay: EMSA; conditions: 20 mM Tris pH 7.9, 25 mM NaCl, 3 mM MgCl2, 0.1 mM DTT, EMSA at room temperature 45 min, recombinant protein, residues 642-1290, label: 3' fluorescein (FAM) on strand 2

Sequence	binding result (BLM642-1290 helicase [1]; 33.34 uM HJNO (42.42% inhibition, inhibitor Ki 12.89 +/- 3.59 uM), label: 3' fluorescein (FAM) on strand 2)	binding result (BLM642-1290 helicase [1]; 3 mM Mg2+, 500 nM BLM, 2 nM DNA, no inhibitor, label: 3' fluorescein (FAM) on strand 2)	binding result (BLM642-1290 helicase [2]; 3 mM Mg2+, 2.5 uM BLM, no inhibitor)	binding result (BLM642-1290 helicase [2]; 0.335 and 3.35 uM HJNO)	binding result (BLM642-1290 helicase [2]; <0.05 uM mitomycin C)	binding result (BLM642-1290 helicase [1]; 6.67 uM mitomycin C (8% inhibition, inhibitor Ki 3.62 +/- 0.84 uM), label: 3' fluorescein (FAM), single-stranded DNA)	binding result (BLM642-1290 helicase [1]; 33.34 uM HJNO (46.72% inhibition, inhibitor Ki 21.39 +/- 1.76 uM), label: 3' fluorescein (FAM), single-stranded DNA)	binding result (BLM642-1290 helicase [1]; 3 mM Mg2+, 500 nM BLM, 2 nM DNA, no inhibitor, label: 3' fluorescein (FAM), single-stranded DNA)
AATCCGTCGAGCAGAGTTAGGTTAGGTTAGGTTAGTTTTTTTTTT / CCTAACTCTGCTCGACGGATT [dsDNA A1A2]	binds more weakly	binds	binds	binds more weakly	binds more weakly	–	–	–
CCTAACTCTGCTCGACGGATT [ssDNA (21 nt) A2]	–	–	–	–	–	binds more weakly	binds more weakly	binds
